This passage reports MIC results from patent US12263479B2, “Array microfluidic chip and method of antibiotic susceptibility testing” (MEDFLUID CO., LTD., priority 2021, dated 2025).

This assay has as its system S. aureus ATCC29213. Description: antibiotic susceptibility testing on the array microfluidic chip (redox indicator discoloration). Format: cell-based. To be noted: Staphylococcus aureus, ATCC29213, read-out: minimum inhibitory concentration. The source says:
In the present experiment, the array microfluidic chip of the present disclosure is used to perform the antibiotic susceptibility testing on Escherichia coli ATCC25922 (“E. coli ATCC25922” hereafter) and Staphylococcus aureus ATCC29213 (“S. aureus ATCC29213” hereafter) to three antibiotics, namely Amikacin, Gentamicin and Vancomycin.
In the experiment, the dried powders of Amikacin, Gentamicin or Vancomycin are respectively placed in different reaction wells of the array microfluidic chip with different contents, and then the array microfluidic chip is sealed and keeps refrigerated. Next, redox indicators with proper amounts are respectively added to the bacteria-containing mediums including E. coli ATCC25922 or S. aureus ATCC29213, and the bacteria-containing mediums are transported to different reaction wells of different array microfluidic chips and then mixed with the antibiotic powders with different contents thereof so as to form the reaction solutions including different concentrations of antibiotics.
Next, the array microfluidic chips are placed in the incubator and cultured at 37° C., and the antibiotic susceptibilities of E. coli ATCC25922 and S. aureus ATCC29213 to Amikacin, Gentamicin and Vancomycin are further assessed based on the discoloration of the reaction solutions. […]

In brackets after ≈: the same amount, converted by molar mass.

As for `CN[C@H](CC(C)C)C(=O)N[C@H]1C(=O)N[C@@H](CC(N)=O)C(=O)N[C@H]2C(=O)N[C@H]3C(=O)N[C@H](C(=O)N[C@H](C(=O)O)c4cc(O)cc(O)c4-c4cc3ccc4O)[C@H](O)c3ccc(c(Cl)c3)Oc3cc2cc(c3O[C@@H]2O[C@H](CO)[C@@H](O)[C@H](O)[C@H]2O[C@H]2C[C@](C)(N)[C@H](O)[C@H](C)O2)Oc2ccc(cc2Cl)[C@H]1O` [Vancomycin], the MIC was 0.5 µg/mL (≈ 0.345 µM).
